In US12060409B2, “Short cyclic peptides for the treatment of Graves' disease” (priority 2018, dated 2024):
pIC50: −log10 of the molar value. At least one peptide structure holds a part that was inferred or is arguable (an end, a ring closure or a residue). Peptide text beside a SMILES is read from it.

Biological target: polyclonal mouse anti-TSHR antibodies
Assay: In vitro ELISA: binding of polyclonal mouse anti-TSHR antibodies to coated TSHR-Fc
Conditions: peptide added to sera from Ad-TSHR-immunized mice ex vivo

Row | SMILES | IC50 of inhibition of binding of polyclonal anti-TSHR antibodies to coated TSHR-Fc | pIC50 (read-out: IC50 of inhibition of binding of polyclonal anti-TSHR antibodies to coated TSHR-Fc)
1 | CC(C)C[C@@H]1NC(=O)[C@H](Cc2ccc(O)cc2)NC(=O)[C@H](C(C)C)NC(=O)[C@H](C)NC(=O)[C@H](CC(=O)O)NC(=O)[C@H](CC(C)C)NC(=O)[C@H](CCCCN)NC(=O)[C@H]([C@@H](C)O)NC(=O)CNC(=O)[C@H](CCCCN)NC(=O)[C@H](CC(N)=O)NC(=O)[C@H](CCCCN)NC(=O)[C@H](CC(N)=O)NC1=O [peptide 836 13mer, TKLDAVYLNKNKG] (HELM PEPTIDE1{A.V.Y.L.N.K.N.K.G.T.K.L.D}$PEPTIDE1,PEPTIDE1,1:R1-13:R2$$$V2.0) | not observed | 
2 | CC(C)[C@@H]1NC(=O)[C@H](CCCNC(=N)N)NC(=O)[C@H](Cc2ccccc2)NC(=O)[C@H](CC(=O)O)NC(=O)[C@H](CCC(=O)O)NC(=O)[C@H](CCC(=O)O)NC(=O)[C@H](CCC(N)=O)NC(=O)[C@H](Cc2c[nH]cn2)NC(=O)[C@@H](N)CSSC[C@@H](C(=O)O)NC(=O)[C@H]([C@@H](C)O)NC1=O [peptide 19, CHQEEDFRVTC] (HELM PEPTIDE1{C.H.Q.E.E.D.F.R.V.T.C}$PEPTIDE1,PEPTIDE1,1:R3-11:R3$$$V2.0) |  | ~7.70
